Reference: patent publication US6372766B1, “Substituted 2-(2′-pyridyloxy)phenylacetamides, as fungicides and pesticides” (priority 1997, dated 2002)
Where two headings read alike, the source gives them in different places. Some of these results come from one statement about several compounds together.

Assays:
Assay type in all cases: in vivo
Plasmopara viticola = assay: Action against Plasmopara viticola on vines (long-term, protective); conditions: 4 ppm; vines "Müller-Thurgau"; inoculated 7 days after spraying; untreated plants 75%
Phytophthora infestans = conditions: 16 ppm; tomato plants; infected one week after application; read after 6 days; untreated plants 100%
Pyricularia oryzae = conditions: rice "Tai-Nong 67", inoculated the day after spraying, 6 days, untreated plants 90%
Puccinia recondita = assay: Action against Puccinia recondita on wheat (wheat leaf rust); conditions: 16 ppm; wheat "Frühgold"; sprayed the day after infection; 7 days; untreated plants 75%

| SMILES | infection (extent of fungal infection on underside of leaves, visual) (Plasmopara viticola) | infection (tomato blight, visual) (Phytophthora infestans) | infection (development of disease on leaves, visual) (Pyricularia oryzae; 16 ppm) | infection (development of disease on leaves, visual) (Pyricularia oryzae; 63 ppm) | infection (extent of rust fungus development on leaves) (Puccinia recondita) |
| --- | --- | --- | --- | --- | --- |
| CNC(=O)/C(=N/OC)c1ccccc1COc1nc(F)c(C(F)(F)F)cc1Cl [I-7] | not more than 15% | not more than 15% |  |  |  |
| CNC(=O)/C(=N/OC)c1ccccc1COc1ncc(C(F)(F)F)cc1F [I-1, α-anti-methoxyimino-N-methyl-2-(3-fluoro-5-trifluoromethyl-2-pyridyloxy)methylphenyl-acetamide] |  | not more than 15% | not more than 40% | not more than 15% |  |
| CNC(=O)/C(=N/OC)c1ccccc1COc1ncc(C(F)(F)F)cc1C [I-2, α-anti-methoxyimino-N-methyl-2-(3-methyl-5-trifluoromethyl-2-pyridyloxy)methyl-phenylacetamide] |  | not more than 15% | not more than 40% | not more than 15% |  |
| CNC(=O)/C(=N/OC)c1ccccc1COc1nc(Cl)c(C(F)(F)F)cc1Cl [I-6] | not more than 15% | not more than 15% |  |  | not more than 15% |
| CNC(=O)/C(=N/OC)c1ccccc1COc1nc(Cl)c(Cl)cc1Cl [I-5] | not more than 15% | not more than 15% | not more than 40% | not more than 15% |  |
| CNC(=O)/C(=N/OC)c1ccccc1COc1nc(Cl)ccc1C(F)(F)F [I-3] | not more than 15% |  | not more than 40% | not more than 15% | not more than 15% |
| CNC(=O)/C(=N/OC)c1ccccc1COc1ncc(C(F)F)cc1Cl [I-8] | not more than 15% | not more than 15% | not more than 40% | not more than 15% | not more than 15% |
